{
  "sequences": {"note": "Sequences of proteins named here, by UniProt entry; tags and fusion partners are left off. A change or cut given only in a name is not applied to a line headed by its entry.", "UniProt P51450": "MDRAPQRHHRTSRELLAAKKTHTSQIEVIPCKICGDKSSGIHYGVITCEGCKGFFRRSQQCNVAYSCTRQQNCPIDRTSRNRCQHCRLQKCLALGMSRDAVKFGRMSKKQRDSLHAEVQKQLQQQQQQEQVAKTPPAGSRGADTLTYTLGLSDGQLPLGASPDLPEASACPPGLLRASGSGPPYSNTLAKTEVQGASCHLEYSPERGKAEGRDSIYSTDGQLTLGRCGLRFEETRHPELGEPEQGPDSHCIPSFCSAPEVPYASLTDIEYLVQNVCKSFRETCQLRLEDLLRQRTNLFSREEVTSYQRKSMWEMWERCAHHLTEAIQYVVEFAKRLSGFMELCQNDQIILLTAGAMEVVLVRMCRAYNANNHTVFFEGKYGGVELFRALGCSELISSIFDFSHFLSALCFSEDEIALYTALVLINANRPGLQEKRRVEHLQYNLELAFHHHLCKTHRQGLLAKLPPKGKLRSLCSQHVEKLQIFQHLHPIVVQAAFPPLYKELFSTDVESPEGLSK"},
  "source": "PubChem BioAssay AID2551",
  "about": "(National Center for Advancing Translational Sciences (NCATS), 2010)",
  "note": "Out of some 310,000 compounds screened, about 17,000 (5.5%) were called active. This list was built around the results that the source calls inconclusive (neither active nor inactive); the mix of calls is not that of the screen. The call rests on the fitted dose curve; in most records, active means well fitted inhibition curve with a large enough effect; inconclusive means small, poorly fitted or top-dose-only effect, or effect the other way; inactive means no such curve, though single readings can be large or run the other way. Where the call is inconclusive, the potency comes from a doubtful curve fit. On the % scale 0 is the no-effect control and ±100 the full control effect; potency means the concentration at half of the fitted maximal effect.",
  "data": [
    {"target": "Nuclear receptor ROR-gamma (Mus musculus) (UniProt P51450)", "experiment": "qHTS for inhibitors of ROR gamma transcriptional activity; further: nearly all actives have a fitted effect of over 60% in size", "conditions": "Drosophila S2 Gal4-RORgamma UAS-luciferase reporter, 20 h; activity change, negative = inhibition: at 53.6 µM (top of the series)", "summary_of_the_method": "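Using a luciferase readout, inhibitors were identified by reduced reporter activity in Drosophila cells coexpressing a copper-inducible Gal4–ROR gamma fusion and UAS-driven Photinus luciferase, incubated 20 hr after 700 uM copper sulfate.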", "values": [
      {"compound": "CC(C)NC(=O)N1CCC(n2nccc2NC(=O)CCOc2ccccc2)CC1", "activity change, negative = inhibition": "inactive: -29.8%"},
      {"compound": "CCOC(=O)CN(Cc1sccc1C)C(=O)Nc1ccc(OCC)cc1", "Potency": "inconclusive: 17.8 µM [activator, single point]"},
      {"compound": "CC(C)Oc1cccc(C(=O)C2CCCN(C(=O)c3noc4c3CCCC4)C2)c1", "note": "(configuration not stated)", "Potency": "inconclusive: 12.6 µM [activator, partial curve]"},
      {"compound": "CCN(CC)c1ccc(/C=C(\\C#N)c2ccccn2)cc1", "Potency": "active: 6.31 µM"},
      {"compound": "CCOc1cc(S(=O)(=O)NCc2ccccn2)c(C)cc1C", "Potency": "inconclusive: 7.94 µM [inhibitor, partial curve]"},
      {"compound": "COc1ccc(NC(=O)Oc2ccccc2)cc1Cl", "activity change, negative = inhibition": "inactive: 0.316%"},
      {"compound": "Cc1nc(-c2ccc(S(=O)(=O)Oc3ccccc3Cl)s2)cs1", "Potency": "inconclusive: 35.5 µM [activator, single point]"},
      {"compound": "Cc1ccccc1NC(=O)c1cc(C(=O)c2cc(Cl)ccc2O)cn(-c2ccccc2C)c1=O", "Potency": "inconclusive: 10 µM [activator, partial curve]"},
      {"compound": "COc1ccc(/C=N/Nc2ccc(C(=O)O)cc2)cc1Br", "Potency": "active: 39.8 µM"},
      {"compound": "Fc1ccccc1COc1ccc(C(=S)N2CCCC2)cc1", "Potency": "inconclusive: 35.5 µM [inhibitor, single point]"},
      {"compound": "O=C(CSc1n[nH]c(-c2ccco2)n1)Nc1ccc(F)cc1", "activity change, negative = inhibition": "inactive: 20.6%"},
      {"compound": "COc1ccc(Cc2nc(-c3ccc(Br)o3)no2)cc1OC", "Potency": "inconclusive: 3.98 µM [activator, full curve]"},
      {"compound": "C=CCn1cc(C(=O)N2CCc3ccccc3C2)c(=O)c2cc(S(=O)(=O)N(CC)CC)ccc21", "Potency": "inconclusive: 15.8 µM [activator, partial curve]"},
      {"compound": "CC(C)CNC(=S)N(Cc1ccco1)Cc1cc2cc3c(cc2[nH]c1=O)OCCO3", "activity change, negative = inhibition": "inactive: 21.2%"},
      {"compound": "CC1=CC(C)(C)N2C(=O)C3(C(C#N)=C(N)OC4=C3C(=O)CC(C)(C)C4)c3cc(C)cc1c32", "note": "(configuration not stated)", "Potency": "inconclusive: 35.5 µM [activator, single point]"},
      {"compound": "CCC/C=C/C1C(=O)C2OC2C2(OCC(CC)(CC)CO2)C1CO", "note": "(configuration not stated)", "Potency": "inconclusive: 2.51 µM [inhibitor, partial curve, poor fit]"},
      {"compound": "CCOc1ccc(N=CC2=C(O)CC(c3ccco3)CC2=O)cc1", "note": "(configuration not stated)", "Potency": "inconclusive: 8.91 µM [activator, partial curve]"},
      {"compound": "CN(C)C(=O)CSc1cccc2cccnc12", "Potency": "active: 10 µM"},
      {"compound": "COC(=O)c1ccc(CSc2nc3ccc(Cl)cc3[nH]2)o1", "Potency": "inconclusive: 2.82 µM [activator, full curve, poor fit]"},
      {"compound": "CCC1=NN(C(=O)c2ccc(C)cc2)C(O)(c2ccc(Br)cc2)C1", "note": "(configuration not stated)", "Potency": "inconclusive: 35.5 µM [inhibitor, single point]"},
      {"compound": "C=CCn1c(-c2ccc(C)cc2)nc2ccccc21", "Potency": "inconclusive: 10 µM [inhibitor, partial curve]"},
      {"compound": "CSc1ccc(CNC(=O)C2Cc3cc(S(=O)(=O)N4CCCCC4)ccc3N2C(C)=O)cc1", "note": "(configuration not stated)", "Potency": "inconclusive: 35.5 µM [activator, single point]"},
      {"compound": "COc1ccc(-c2nc3ccccc3n2Cc2ccccc2)cc1", "Potency": "active: 3.98 µM"},
      {"compound": "CCc1nnc(NC(=O)c2sc3nc(C)cc(COC)c3c2N)s1", "Potency": "inconclusive: 22.4 µM [inhibitor, single point]"},
      {"compound": "Cc1cc(NC(=O)c2ccc3c(c2)OCCO3)no1", "Potency": "active: 10 µM"},
      {"compound": "Cc1ccc(-c2noc(C3CCCN(C(=O)c4ccccc4)C3)n2)o1", "note": "(configuration not stated)", "Potency": "inconclusive: 2.51 µM [activator, full curve]"},
      {"compound": "Cc1ccc2nc3c(cc(C#N)c(=N)n3CC3CCCO3)c(=O)n2c1", "note": "(configuration not stated)", "activity change, negative = inhibition": "inactive: 24.5%"},
      {"compound": "CC(C)(C)c1cc(CSC(=S)NC2CCS(=O)(=O)C2)c(Br)c(C(C)(C)C)c1", "note": "(configuration not stated)", "Potency": "inconclusive: 15.8 µM [inhibitor, single point]"},
      {"compound": "COc1ccc(C(=O)C2CCCN(Cc3cccn3-c3nccs3)C2)cc1F", "note": "(configuration not stated)", "activity change, negative = inhibition": "inactive: -7.83%"},
      {"compound": "COc1ccc(NC(=S)NCc2ccccc2Cl)c(OC)c1", "Potency": "active: 12.6 µM"},
      {"compound": "Nc1ccc(S(=O)(=O)Nc2ccc(C(=O)c3ccccc3)cc2)cc1", "Potency": "inconclusive: 14.1 µM [activator, partial curve]"},
      {"compound": "COc1cc(/C=C2/C(=O)NN(c3cccc(Cl)c3)C2=O)cc(OC)c1O", "activity change, negative = inhibition": "inactive: -7.69%"},
      {"compound": "Cc1ccc(-n2ccc(-c3nn(-c4ccccc4)ccc3=O)n2)cc1", "Potency": "inconclusive: 35.5 µM [inhibitor, single point]"},
      {"compound": "C=CCN(c1ccccc1)S(=O)(=O)c1cccc(C(=O)N(CC)CC(=O)Nc2c(F)cccc2F)c1", "Potency": "inconclusive: 35.5 µM [activator, single point]"},
      {"compound": "O=C(NCCN1CCOCC1)c1ccc(-c2ccccc2)cc1", "activity change, negative = inhibition": "inactive: 36.9%"},
      {"compound": "COc1ccc(NC(=O)c2cc([N+](=O)[O-])ccc2NC(=O)CNCc2ccccn2)c(OC)c1", "Potency": "inconclusive: 35.5 µM [inhibitor, single point]"},
      {"compound": "OC(COC(c1ccc(F)cc1)c1ccc(F)cc1)CN1CCc2ccccc2C1", "note": "(configuration not stated)", "activity change, negative = inhibition": "inactive: -32.6%"},
      {"compound": "O=C(Nc1nnc(C2=COCCO2)o1)c1ccc(Cl)cc1", "Potency": "active: 0.631 µM"},
      {"compound": "COc1ccc(-c2csc(NC(=S)NC(=O)c3ccc(S(=O)(=O)N(C)C)cc3)n2)cc1OC", "Potency": "active: 2.82 µM"},
      {"compound": "O=C(Nc1ccc(-c2nc3c(ccc4ccccc43)o2)cc1)c1ccco1", "Potency": "inconclusive: 4.47 µM [inhibitor, full curve]"},
      {"compound": "O=C(N/N=C/c1ccccn1)c1cc(-c2ccc(Cl)cc2)nc2ccccc12", "Potency": "active: 0.398 µM"},
      {"compound": "Cc1nc2ccc(NC(=O)N3CCC(c4ccccc4)C3)cc2nc1C", "note": "(configuration not stated)", "Potency": "inconclusive: 10 µM [activator, single point]"},
      {"compound": "CC(=O)c1ccc(OC2OCCOC2Oc2ccc(C(C)=O)cc2)cc1", "note": "(configuration not stated)", "Potency": "inconclusive: 11.2 µM [activator, single point]"},
      {"compound": "O=C(Nc1nccs1)c1ccc(Br)c(S(=O)(=O)N2CCCC2)c1", "Potency": "inconclusive: 22.4 µM [inhibitor, single point]"},
      {"compound": "O=C(Cc1cccs1)Nc1nnc(Cc2ccccc2)s1", "Potency": "inconclusive: 0.0562 µM [inhibitor, full curve, poor fit]"},
      {"compound": "O=C(CN(Cc1ccc(Br)cc1)S(=O)(=O)c1ccccc1)NCc1cccnc1", "activity change, negative = inhibition": "inactive: 2.42%"},
      {"compound": "CC(C)c1ccc(/C=N/Nc2cc(N3CCOCC3)nc(N3CCOCC3)n2)cc1", "Potency": "inconclusive: 31.6 µM [activator, single point]"},
      {"compound": "COc1ccc(NC2=NCCC2)cc1", "activity change, negative = inhibition": "inactive: -0.356%"},
      {"compound": "O=[N+]([O-])c1ccc(-n2nnnc2-c2ccccc2)cc1", "activity change, negative = inhibition": "inactive: -5.48%"},
      {"compound": "COc1ccc(-c2ncccc2OC(=O)C23CC4CC(CC(C4)C2)C3)cc1OC", "Potency": "inconclusive: 3.98 µM [activator, full curve, poor fit]"},
      {"compound": "COC(=O)c1sccc1NC(=O)Cc1ccc(OC)c(OC)c1", "Potency": "inconclusive: 31.6 µM [inhibitor, single point]"},
      {"compound": "Cc1ccc(C(=O)NC(=S)Nc2ccccc2N2CCCC2)cc1[N+](=O)[O-]", "Potency": "inconclusive: 5.62 µM [inhibitor, single point]"},
      {"compound": "Cc1ccc(C2(C)NC(=O)N(CC(=O)Nc3ccc(-c4nc5ccc(C)cc5s4)cc3)C2=O)cc1", "note": "(configuration not stated)", "Potency": "inconclusive: 3.98 µM [inhibitor, full curve, poor fit]"},
      {"compound": "O=C(/C=C/c1ccco1)Nc1ccc(-c2nc3ccccc3[nH]2)cc1", "activity change, negative = inhibition": "inactive: 28%"},
      {"compound": "Cc1nc(C(F)(F)F)ccc1C(=O)N1CCCCC1", "activity change, negative = inhibition": "inactive: 18.9%"},
      {"compound": "CCCCNc1nc(-c2ccccc2)cc(C(F)(F)F)c1C(N)=O", "Potency": "inconclusive: 3.55 µM [activator, single point]"},
      {"compound": "CN1CCN(C2=Cc3ccccc3Sc3cc(F)c(Cl)cc32)CC1", "Potency": "inconclusive: 35.5 µM [inhibitor, single point]"},
      {"compound": "COCCNC(=S)N/N=C(\\C)c1cccc(OC)c1", "Potency": "active: 3.98 µM"},
      {"compound": "Cc1ccc(NC(=O)N2CCc3ccccc32)cc1", "Potency": "inconclusive: 22.4 µM [inhibitor, single point]"},
      {"compound": "O=C(NNc1nc2c(F)cccc2s1)c1cc(=O)c2ccccc2o1", "Potency": "active: 10 µM"},
      {"compound": "Cc1cccc(Nc2c(-c3ccc(N4CCOCC4)cc3)nc3ncccn23)c1", "Potency": "inconclusive: 10 µM [activator, partial curve]"},
      {"compound": "CCOC(=O)c1c(-c2ccc(C)cc2)csc1NC(=O)/C(C#N)=C/c1ccc(O)c(OC)c1", "activity change, negative = inhibition": "inactive: 31.5%"},
      {"compound": "Cn1c2ccccc2c(=O)c2c(=O)n(Cc3ccco3)c(COc3ccccc3)nc21", "Potency": "inconclusive: 14.1 µM [inhibitor, single point]"},
      {"compound": "Cn1c(CCN2CCCC2)nc2cc(NS(=O)(=O)c3ccccc3)ccc21", "activity change, negative = inhibition": "inactive: -26.1%"},
      {"compound": "COc1ccc(OC)c(C(=O)c2ccccc2)c1", "Potency": "inconclusive: 2.24 µM [inhibitor, partial curve, poor fit]"},
      {"compound": "CC(=O)/C(=N/Nc1ccc([N+](=O)[O-])cc1)N1CCCc2ccccc21", "Potency": "inconclusive: 5.62 µM [activator, single point]"},
      {"compound": "OC(COCCOc1ccc(Br)cc1)CN1CCN(Cc2ccccc2)CC1", "note": "(configuration not stated)", "Potency": "inconclusive: 15.8 µM [activator, single point]"},
      {"compound": "CCC(=O)c1ccc(OCc2ccccc2)c(OC)c1", "Potency": "inconclusive: 20 µM [activator, single point]"},
      {"compound": "NC(=O)CC(NC(=O)Cc1ccc(Br)cc1)c1ccc(NCCOc2ccccc2)c([N+](=O)[O-])c1", "note": "(configuration not stated)", "Potency": "inconclusive: 3.16 µM [activator, full curve, poor fit]"},
      {"compound": "CC(=O)c1ccc(NC(=O)CN2CCCCCC2)cc1", "activity change, negative = inhibition": "inactive: 10.5%"},
      {"compound": "COC(=O)C(CC(=O)c1ccc(Br)cc1)n1nc(C)cc1C", "note": "(configuration not stated)", "Potency": "inconclusive: 0.0056 µM [inhibitor, full curve, poor fit]"},
      {"compound": "c1ccc(CN2CCC(=NNc3nc4ccccc4[nH]3)CC2)cc1", "Potency": "active: 22.4 µM"}
    ]}
  ]
}
